For some assays here: For expression read-outs the peptide stands for its source gene, whose mRNA was measured; the gene is not named for every peptide.
Columns and labels:
[1] = system: HLA molecules from shock-frozen tissue samples; experiment: Identification and quantitation of tumor associated peptides presented on the cell surface (HLA immunoprecipitation, LC-MS); set-up: species or system human
[2] = system: source genes (mRNA) in tumor and normal tissue; experiment: Expression profiling of genes encoding the peptides (RNAseq); set-up: species or system human
[3] = cancer entities on which the peptide was detected by LC-MS of HLA ligands
[4] = tumor entities in which the source gene is over-expressed vs panel of normal tissues (Table 9a)
[5] = tumor entities in which the source gene is highly over-expressed vs panel of normal tissues (Table 9a)
[6] = cancer entities on which the peptide was found presented (Table 8b)
[7] = tumor entities in which the source gene is highly over-expressed vs panel of normal tissues (Table 9b)
[8] = tumor entities in which the source gene is over-expressed vs panel of normal tissues (Table 9b)

210: peptide found in ADCY10 (gene looked up) (KIFQGQINK; listed as Homo sapiens) [compound 210]
Peptide Presentation on cancer entities [1, 3]: HCC
Gene Expression in tumor samples: over-expressed (+) [2, 4]: HCC

212: peptide found in NUP155 (gene looked up) (RTIDRSVFK; listed as Homo sapiens) [compound 212]
Peptide Presentation on cancer entities [1, 3]: MEL, UEC
Gene Expression in tumor samples: over-expressed (+) [2, 4]: NSCLCsquam, SCLC

214: peptide found in DNTT (gene looked up) (KLFTSVFGVGLK; listed as Homo sapiens) [compound 214]
Peptide Presentation on cancer entities [1, 3]: AML
Gene Expression in tumor samples: highly over-expressed (++) [2, 5]: AML

215: peptide found in OXTR (gene looked up) (KIWQNLRLK; listed as Homo sapiens) [compound 215]
Peptide Presentation on cancer entities [1, 3]: CCC, CRC
Gene Expression in tumor samples: highly over-expressed (++) [2, 5]: CCC
Gene Expression in tumor samples: over-expressed (+) [2, 4]: GBM, OC

216: peptide found in OXTR (gene looked up) (RVSSVKLISK; listed as Homo sapiens) [compound 216]
Peptide Presentation on cancer entities [1, 3]: CCC, CRC, NSCLCadeno, PRCA
Gene Expression in tumor samples: highly over-expressed (++) [2, 5]: CCC
Gene Expression in tumor samples: over-expressed (+) [2, 4]: GBM, OC

220: peptide found in CDK6 (gene looked up) (ALPRQAFHSK; listed as Homo sapiens) [compound 220]
Peptide Presentation on cancer entities [1, 3]: AML
Gene Expression in tumor samples: highly over-expressed (++) [2, 5]: AML
Gene Expression in tumor samples: over-expressed (+) [2, 4]: GBM, GC

225: peptide found in AR (gene looked up) (RVYPRPPSKTY; listed as Homo sapiens) [compound 225]
Peptide Presentation on cancer entities [1, 3]: HCC, UEC
Gene Expression in tumor samples: over-expressed (+) [2, 4]: BRCA, HCC, PRCA

258: peptide found in F5 (gene looked up) (QVRDTLKIVFK; listed as Homo sapiens) [compound 258]
Peptide Presentation on cancer entities [1, 6]: CCC, HCC, MEL, NSCLCadeno
Gene Expression in tumor samples: highly over-expressed (++) [2, 7]: HCC
Gene Expression in tumor samples: over-expressed (+) [2, 8]: CCC

260: peptide found in PGR (gene looked up) (VIAAQLPK; listed as Homo sapiens) [compound 260]
Peptide Presentation on cancer entities [1, 6]: CCC, NSCLCadeno, OC
Gene Expression in tumor samples: highly over-expressed (++) [2, 7]: UEC
Gene Expression in tumor samples: over-expressed (+) [2, 8]: BRCA

262: peptide found in PGR (gene looked up) (TMWQIPQEFVK; listed as Homo sapiens) [compound 262]
Peptide Presentation on cancer entities [1, 6]: UEC
Gene Expression in tumor samples: highly over-expressed (++) [2, 7]: UEC
Gene Expression in tumor samples: over-expressed (+) [2, 8]: BRCA

266: peptide found in GPRC6A (gene looked up) (RNLNTPVVK; listed as Homo sapiens) [compound 266]
Peptide Presentation on cancer entities [1, 6]: CRC, OSCAR
Gene Expression in tumor samples: over-expressed (+) [2, 8]: CRC

270: peptide found in EPHA6 (gene looked up) (KFKPNQYTK; listed as Homo sapiens) [compound 270]
Peptide Presentation on cancer entities [1, 6]: CRC, MEL
Gene Expression in tumor samples: over-expressed (+) [2, 8]: CCC

271: peptide found in CCL22 (gene looked up) (RLPLRVVKH; listed as Homo sapiens) [compound 271]
Peptide Presentation on cancer entities [1, 6]: NHL
Gene Expression in tumor samples: highly over-expressed (++) [2, 7]: NHL
Gene Expression in tumor samples: over-expressed (+) [2, 8]: NSCLCadeno

272: peptide found in KLK3 (gene looked up) (AVCGGVLVH; listed as Homo sapiens) [compound 272]
Peptide Presentation on cancer entities [1, 3]: PRCA
Gene Expression in tumor samples highly over-expressed (++) ([2]; source gene of the peptide, RNAseq, tumors compared to a panel of normal tissues): PRCA

— patent US11872270B2, “A*03 restricted peptides for use in immunotherapy against cancers and related methods” (Immatics Biotechnologies GmbH, priority 2018, dated 2024)
